These are yes or no findings as the source states them, for the method shown. Binding seen in cells or lysates may run through a third protein. Some entries that bind do so weakly or less than the wild type. Sequences can lack the tags named with a protein.
Target: T1, GFP-tagged SH3 domain of human amph2 (human) (UniProt O00499)
T1 sequence: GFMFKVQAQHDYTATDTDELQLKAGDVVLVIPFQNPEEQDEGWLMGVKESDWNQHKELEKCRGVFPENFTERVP
Assay: co-IP; GFP-Trap (Chromotek) precipitation of GFP-tagged amph2 constructs expressed in C2C12 cells; Western blot for endogenous N-WASP and GFP

Chains of the proteins cited; added tags and fusions are not shown.
UniProt Q91YD9: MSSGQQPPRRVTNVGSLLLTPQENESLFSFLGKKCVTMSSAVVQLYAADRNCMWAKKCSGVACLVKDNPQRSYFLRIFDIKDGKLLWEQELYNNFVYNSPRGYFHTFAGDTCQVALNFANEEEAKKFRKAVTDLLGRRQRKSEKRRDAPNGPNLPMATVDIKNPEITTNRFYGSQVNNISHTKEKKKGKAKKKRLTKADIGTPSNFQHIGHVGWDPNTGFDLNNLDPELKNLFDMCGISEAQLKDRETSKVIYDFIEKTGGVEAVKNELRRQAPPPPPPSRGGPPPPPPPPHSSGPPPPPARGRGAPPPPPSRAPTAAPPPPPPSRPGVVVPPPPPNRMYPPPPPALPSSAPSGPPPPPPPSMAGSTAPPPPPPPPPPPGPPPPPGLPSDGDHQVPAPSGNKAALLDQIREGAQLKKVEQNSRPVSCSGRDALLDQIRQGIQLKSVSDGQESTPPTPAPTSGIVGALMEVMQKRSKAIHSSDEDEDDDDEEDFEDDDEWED

With “N-WASP, endogenous (mouse cells) (from UniProt Q91YD9 1-501)” the binding was “binds”.
